Data as given in PubChem BioAssay AID652272 (Drosophila RNAi Screening Center, 2013).
Screen: 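Finding fly genes that regulate Hedgehog signal transduction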 (primary screen). System: Drosophila clone 8 (Cl8) cells. Reagents: long dsRNA against Drosophila genes. Read-out: 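Firefly light from a Hedgehog-responsive ptc promoter reporter and Renilla reference light, both read on a plate reader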. Scale: firefly Hh reporter signal: higher = more ptc reporter light; Renilla reference signal: higher = more Renilla control light. Call rule: 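Called a hit if the two-replicate mean z-score lies below -2 or above +3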. Meaning of the calls: active = hit: reporter lowered or raised; inactive = not a hit.
The screen tested about 21,000 reagents; below is an unselected part of those with a known target gene and a result. In the full data, 503 (2.4%) got an active call. 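Raw plate light values, not normalised; calls rest on replicate z-scores that were not deposited; hits include reporter decreases as well as increases.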 Entries without a mark were called inactive. A plus sign joins genes that one reagent is predicted to hit. The record does not give: the amount of reagent, the time to read-out.

Gene	PubChem SID	firefly Hh reporter signal, replicate 1	firefly Hh reporter signal, replicate 2	firefly Hh reporter signal, replicate 3	Renilla reference signal, replicate 1	Renilla reference signal, replicate 2
CG8281	SID104190768	54033	83383		2148	6056
CG13039	SID104189712	1.26e5			8183	3768
CAH7 (Carbonic anhydrase 7)	SID104195316	55832	80861		2107	2112
CG34386	SID104186259	69980	28067		1546	2464
CG34386	SID104186260	63696	83204		1761	5953
Max	SID104191010	1.44e5	91056		4731	2965
MnM (myomesin and myosin binding protein)	SID104188215	88525	34873		2051	1296
Drice (Death related ICE-like caspase)	SID104196507	1.16e5	77748		2896	2434
Cog8 (Component of oligomeric golgi complex 8)	SID104182753	91690	1.13e5		4250	4556
CG14384	SID104194634	80658	73019		1443	1602
CG32206	SID104189394	6.69e5	2.84e5	1.24e5	5416	6604
CG32206	SID104189886	79712	88864		2914	2224
CG32206	SID104189887	92698	63195		2955	1693
CG32206	SID104189888	1.54e5	1.24e5		4598	3131
CG32206	SID104190872	74080	74425		3122	2362
5-HT1A (5-hydroxytryptamine (serotonin) receptor 1A)	SID104184822	54643	54679		804	3722
CG13920	SID104188181	1.40e5	1.07e5		5719	4512
MFS14 (Major Facilitator Superfamily Transporter 14)	SID104186316	1.59e5	1.17e5		6532	4341
CG3847	SID104197236	5.43e5	1.80e5		30477	3709
CG3847	SID104198119	74069	60860		2035	1651
CG13404	SID104199328	57940	1.53e5		1603	6540
CG32450	SID104191338	1.84e5			4375	
bor (belphegor)	SID104196707	65495	85297		2052	2115
spag (spaghetti)	SID104184509	69770	51956		1773	4660
CG15564	SID104194894	1.07e5	90304		4507	840
dnk (deoxyribonucleoside kinase)	SID104196725	4.59e5	1.03e5		25578	3184
CG13810	SID104188136	1.56e5	66258		5217	5021
DCTN5-p25 (Dynactin 5, p25 subunit)	SID104183317	65364	77100		1571	5957
CG5348	SID104186725	95812	50025		2755	3616
Rbf2 (Retinoblastoma-family protein 2)	SID104196608	83318	1.18e5		2027	7980
Gycbeta100B (Guanylyl cyclase beta-subunit at 100B)	SID104193831	4.65e5	1.85e5		23712	4166
Gycbeta100B (Guanylyl cyclase beta-subunit at 100B)	SID104193832	4.15e5	1.83e5		20977	3556
Gycbeta100B (Guanylyl cyclase beta-subunit at 100B)	SID104196483	1.25e5	1.31e5		768	3940
D12	SID104183103	1.08e5	65833		5084	2568
CG14989	SID104188240	97769	52694		4064	2404
Grx1t (Glutaredoxin 1, testis-specific)	SID104184322	85139	46160		2877	4624
Mkp3 (Mitogen-activated protein kinase phosphatase 3)	SID104189876	1.18e5	83433		5066	3168
Mkp3 (Mitogen-activated protein kinase phosphatase 3)	SID104189877	77077	80514		2840	3128
LSm1 (Like Sm 1)	SID104184250	87355	85281		2023	7700
Rab4	SID104187316	89751	82448		4432	3511
CR12628 + Mgstl	SID104183494	57696	5.28e5	60705	2375	32381
CR12628 + Mgstl	SID104200360	1.49e5	3.03e5		5900	13570
RpL39 (Ribosomal protein L39)	SID104184443	33499 (active)	34884		1293	5392
CG3907	SID104184224	85061	66763		1661	5545
CG42232	SID104194810	54944	39464		2976	1943
CG42232	SID104194811	1.07e5	83706		5229	3778
alt (aluminum tubes)	SID104195107	1.11e5	66672		5456	2454
Prat2 (Phosphoribosylamidotransferase 2)	SID104189484	1.24e5	1.15e5		5236	4760
DptB (Diptericin B)	SID104185793	1.41e5	45400		3488	2194
CG31345	SID104193985	82192	1.15e5		3457	2508
CG31345	SID104194639	1.40e5	1.10e5		4944	2480
CG10417	SID104184638	1.35e5	1.27e5		5045	4384
Vps25 (Vacuolar protein sorting 25)	SID104186278	94754	32199		2676	3063
CG11858	SID104194204	6.69e5	1.33e5		35869	4012
Stoml2 (Stomatin like 2)	SID104184118	1.57e5	1.25e5		6273	4832
cyc (cycle)	SID104191129	61923	1.14e5		2776	3336
CG14835	SID104189997	64215	39898		8311	2835

7 entries from above, ordered by “firefly Hh reporter signal, replicate 1”, low to high:
Gene	PubChem SID	firefly Hh reporter signal, replicate 1	firefly Hh reporter signal, replicate 2	firefly Hh reporter signal, replicate 3	Renilla reference signal, replicate 1	Renilla reference signal, replicate 2
cyc (cycle)	SID104191129	61923	1.14e5		2776	3336
CG14835	SID104189997	64215	39898		8311	2835
Vps25 (Vacuolar protein sorting 25)	SID104186278	94754	32199		2676	3063
CG10417	SID104184638	1.35e5	1.27e5		5045	4384
CG31345	SID104194639	1.40e5	1.10e5		4944	2480
Stoml2 (Stomatin like 2)	SID104184118	1.57e5	1.25e5		6273	4832
CG11858	SID104194204	6.69e5	1.33e5		35869	4012
